Among all 580,000 compounds or so, about 6,100 (1.1%) were called active. Inconclusive means that the source gave no clear call. Such entries were picked first, then a sample of the others. The call rests on the fitted dose curve; in most records, active means well fitted inhibition curve with a large enough effect; inconclusive means small, poorly fitted or top-dose-only effect, or another doubt; inactive means no such curve, though single readings can be large or run the other way. Potencies of inconclusive entries are doubtful fits and often do not repeat.
The molecules below were run against Polyunsaturated fatty acid lipoxygenase ALOX12 (Homo sapiens) (UniProt P18054) (assay: Primary qHTS assay for inhibitors of human arachidonate 12S-lipoxygenase (ALOX12): Round 2). Details: purified 12hLO, xylenol orange hydroperoxide absorbance; series mostly up to 108 µM.
In short: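 Purified human 12hLO (150 nM final) in 25 mM Hepes, 0.01% Triton X-100, pH 7.0 was preincubated 15 min at room temperature with compound. Then 40 uM arachidonic acid was added, 30 min. Hydroperoxide was read by Fe-XO absorbance ratio 573/405 nm.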
Potency means the concentration at half of the fitted maximal effect.

By UniProt entry, the sequences of proteins in these tests, tags left out. Where a name states a change or a piece, a line headed by the entry shows the natural chain unless it says otherwise.
UniProt P18054: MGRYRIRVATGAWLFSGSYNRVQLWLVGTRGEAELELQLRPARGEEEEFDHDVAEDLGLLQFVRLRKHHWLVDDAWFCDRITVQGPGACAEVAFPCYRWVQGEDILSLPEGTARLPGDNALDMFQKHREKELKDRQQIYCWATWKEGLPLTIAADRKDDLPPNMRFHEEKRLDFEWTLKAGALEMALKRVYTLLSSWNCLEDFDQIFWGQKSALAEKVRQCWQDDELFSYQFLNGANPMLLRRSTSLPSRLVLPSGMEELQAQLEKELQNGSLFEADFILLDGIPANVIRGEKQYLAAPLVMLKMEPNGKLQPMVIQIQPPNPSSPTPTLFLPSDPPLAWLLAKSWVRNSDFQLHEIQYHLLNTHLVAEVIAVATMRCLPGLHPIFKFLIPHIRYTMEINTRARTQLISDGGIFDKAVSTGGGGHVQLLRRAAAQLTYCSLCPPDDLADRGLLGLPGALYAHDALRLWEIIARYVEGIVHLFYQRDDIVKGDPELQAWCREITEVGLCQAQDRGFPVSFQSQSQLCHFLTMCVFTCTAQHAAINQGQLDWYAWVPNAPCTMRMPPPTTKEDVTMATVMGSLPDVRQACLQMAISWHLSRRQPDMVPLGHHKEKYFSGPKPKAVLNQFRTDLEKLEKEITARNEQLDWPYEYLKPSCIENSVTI

Compound	Potency
CN(C)CCOC1CC2CCC1(C)C2(C)C (stereo not drawn)	inconclusive: 0.355 µM [inhibitor, full curve, poor fit]
COc1cc(C(=O)NCC(c2cccnc2)N2CCc3ccccc32)cc(OC)c1OC (stereo not drawn)	inactive
COc1ccc(CNC(=O)Cc2csc(NC(=O)Nc3ccccc3OC)n2)cc1	inactive
O=C(OCC(=O)C12CC3CC(CC(C3)C1)C2)c1ccc([N+](=O)[O-])s1	inconclusive: 6.31 µM [inhibitor, partial curve, poor fit]
O=C(Nc1ccc(S(=O)(=O)N2CCCC2)cc1)c1ccc([N+](=O)[O-])cc1	inactive
CCS(=O)(=O)N1CC(n2cc(C(=O)NCC3CC3)nn2)C1	inactive
CCOC(=O)C1=CN(Cc2ccc(F)cc2)C=C(C(=O)OCC)C1c1cccc(O)c1	inconclusive: 100 µM [inhibitor, single point]
CCCCOC(=O)CSc1nnc(-c2cc(OC)c(OC)c(OC)c2)o1	inconclusive: 112 µM [inhibitor, partial curve, poor fit]
CN1CCN(c2ncnc3ccc(-c4ccc5c(c4)OCO5)cc23)CC1	inconclusive: 89.1 µM [inhibitor, partial curve, poor fit]
CCOCC(=O)N1CCc2ccccc21	inactive
COC(=O)c1ccc(CSc2cc(C)c3ccccc3n2)o1	inactive
COc1cc(NC(=O)c2ccc3c(SCC(=O)O)c4c(nc3c2)CCC4)cc(OC)c1OC	inactive
CCc1ccc(C2NC(=S)NC3=C2C(=O)CCC3)cc1 (stereo not drawn)	inconclusive: 44.7 µM [inhibitor, partial curve, poor fit]
CCOCc1nnc(NC(=O)C(CC)c2ccccc2)s1 (stereo not drawn)	inconclusive: 100 µM [inhibitor, single point]
N=c1c2c(n(Cc3ccc([N+](=O)[O-])cc3)c3c1CCC3)CCCC2	inconclusive: 1 µM [inhibitor, full curve, poor fit]
CN1Cc2c(N3CCOCC3)nc(SCc3ccccc3)c(C#N)c2CC1(C)C	inactive
CC(C)(C)NC(=O)C(c1cccs1)N(Cc1ccc(F)cc1)C(=O)c1csnn1 (stereo not drawn)	inactive
CCN1CCN(C(C)CCc2ccccc2)CC1 (stereo not drawn)	inconclusive: 31.6 µM [inhibitor, single point]
C/C(=N/Nc1ccnc2cc(Cl)ccc12)c1ccc(O)cc1	inconclusive: 44.7 µM [inhibitor, partial curve, poor fit]
CC(C)C(C#CC(O)(c1ccccc1)c1ccccc1)N(C)C (stereo not drawn)	inconclusive: 3.16 µM [inhibitor, full curve, poor fit]
COc1ccc(NC(=O)CSc2nc(-c3ccc(OC)cc3)[nH]c2-c2ccc(OC)cc2)cc1	inactive
C[C@@H]1CN([C@@H](C)CO)C(=O)CCCn2nncc2CO[C@H]1CN(C)C(=O)Nc1ccc(-c2cccs2)cc1	inconclusive: 4.47 µM [inhibitor, full curve, poor fit]
O=C(N[C@@H]1CN(Cc2ccc(F)cc2Cl)C[C@H]1CO)C1CC1	inactive

Compound	Potency
COC(=O)c1ccccc1NC(=O)Cc1nc(-c2ccccc2)sc1-c1ccc(C)cc1	inconclusive: 4.47 µM [inhibitor, full curve]
C[C@@H]1CN([C@@H](C)CO)C(=O)c2cc(Br)cnc2O[C@@H]1CN(C)S(C)(=O)=O	inconclusive: 39.8 µM [inhibitor, partial curve, poor fit]
O=c1cc(N2CCN(c3ccccc3)CC2)[nH]c(=O)n1C1CCCCC1	inactive
CC(C)(C)NS(=O)(=O)c1ccc(NC(=S)NC(=O)C2CCC2)cc1	inconclusive: 56.2 µM [inhibitor, partial curve, poor fit]
CCCn1c(SCC(=O)Nc2ccc(C)c(F)c2)nc(O)cc1=O	inconclusive: 7.08 µM [inhibitor, full curve, poor fit]
Cc1ccc(OCCn2cc(/C=C/C(=O)O)c3ccccc32)cc1	inconclusive: 56.2 µM [inhibitor, partial curve, poor fit]
Cc1cc(N/N=C/c2c(O)ccc3ccccc23)nc(NCc2ccccc2)n1	inconclusive: 79.4 µM [inhibitor, single point]
N#Cc1cc2c(OCC(O)CN3CCN(C(c4ccccc4)c4ccccc4)CC3)cccc2[nH]1 (stereo not drawn)	inconclusive: 79.4 µM [inhibitor, single point]
Nc1ccc(-c2nc3ncccc3o2)cc1	inconclusive: 100 µM [inhibitor, single point]
COc1ccc(-c2cc(OC(=O)c3ccc(Cl)cc3)c3c(C)oc(C)c3c(=O)c2)cc1	inconclusive: 39.8 µM [inhibitor, partial curve, poor fit]
COc1cccc(C(=O)NC2CCN(c3cc(-c4ccc(F)cc4)[nH]n3)CC2)c1OC	inactive
CC1=NN(C(=O)CSCc2ccccc2)C(O)(c2ccc(Cl)cc2)C1 (stereo not drawn)	inactive
Cc1ccc(C(=O)Nc2cccc(-c3nc4cccnc4s3)c2C)cc1	inconclusive: 89.1 µM [inhibitor, partial curve, poor fit]
C=CCn1c(SCC(=O)NCCCC)nc2scc(-c3ccco3)c2c1=O	inconclusive: 56.2 µM [inhibitor, partial curve, poor fit]
COc1ccc(-n2ncc3c(NCc4ccc5c(c4)OCO5)ncnc32)cc1	inconclusive: 31.6 µM [inhibitor, single point]
CC(C)(C)CC(=O)Nc1cccc(C(=O)O)c1	inconclusive: 0.0891 µM [inhibitor, full curve, poor fit]
Nc1ccc(Sc2ccccc2Cl)cc1	inconclusive: 50.1 µM [inhibitor, partial curve, poor fit]
C/C(=N/O)c1ccc2c(c1)CCC(=O)N2	inconclusive: 3.16 µM [inhibitor, full curve, poor fit]
O=C(c1cccc2cnccc12)N1CCC2(CC1)Nc1ccccc1NC2=O	inactive
COC(=O)c1c(N)c(-c2nc3ccccc3s2)nn1-c1ccc(Cl)cc1	inconclusive: 39.8 µM [inhibitor, partial curve, poor fit]
COC(=O)c1ccc(Nc2nnc(-c3ccc(C)c(S(=O)(=O)N4CCN(C)CC4)c3)c3ccccc23)cc1	inconclusive: 100 µM [inhibitor, partial curve, poor fit]
Cc1ccc(/C=N/NC(=O)CN2CCN(Cc3ccccc3Cl)CC2)o1	inconclusive: 11.2 µM [inhibitor, partial curve, poor fit]

Compound	Potency
O=C(Nc1ccccc1N1CCOCC1)c1ccccc1[N+](=O)[O-]	inactive
Cc1ccc(-n2c(C)c(C)c3c2ncn2nc(-c4ccncc4)nc32)cc1	inactive
CCCc1nnc([C@H]2CCN(C(=O)COC)C2)o1	inactive
COc1cc(OC)c(OC)cc1CN1CCN(C(=O)c2cccc3ccccc23)CC1	inconclusive: 1.78 µM [inhibitor, full curve, poor fit]
O=C(Nc1cccc(Cl)c1)c1ccc2c(Cl)c3c(nc2c1)CCCC3	inactive
CCOc1ccc(NC(=O)CSc2nccn2Cc2ccco2)cc1	inconclusive: 100 µM [inhibitor, single point]
Fc1ccc(CN2CCOC[C@H]2c2ncc(-c3ccc(Cl)s3)[nH]2)cc1	inconclusive: 44.7 µM [inhibitor, full curve]
CC(C)c1ncc(Cl)c(C(=O)O)n1	inconclusive: 20 µM [inhibitor, partial curve, poor fit]
C/C(=N/NC(N)=S)C1=CC(C)(C)CCC1	active: 6.31 µM
Cc1cc2nc3n(c(=O)c2n1CC(=O)Nc1ccc(Br)cc1F)CCC3	inconclusive: 31.6 µM [inhibitor, partial curve]
COc1ccc(CCC(=O)Oc2ccc3c(c2)OCO3)cc1	inactive
Cc1nc2nc(-c3ccco3)[nH]n2c(=O)c1C	inconclusive: 39.8 µM [inhibitor, partial curve, poor fit]
C(=N\N=C\c1c[nH]c2ccccc12)/c1c[nH]c2ccccc12	inactive
COc1ccc(NC(=O)CN2CCN(S(=O)(=O)c3cccs3)CC2)cc1Cl	inconclusive: 100 µM [inhibitor, single point]
CC(C)Cn1cc(C(=O)NCCCN2CCCC2=O)c2c3ccccc3n(C)c2c1=O	inconclusive: 50.1 µM [inhibitor, partial curve, poor fit]
O=S(=O)(Nc1ccc(-c2ccc(N3CCOCC3)nn2)cc1)c1cccc(F)c1	inactive
COCC1CN(C(=O)Cc2c[nH]c3ccccc23)CC12CCOCC2 (stereo not drawn)	inactive
COc1ccc(-c2nc3ccccc3s2)cc1NC(=O)COc1ccc(C)cc1	inconclusive: 112 µM [inhibitor, partial curve, poor fit]
CCc1ccc(C(=O)NNC(=O)c2ccc(=O)n(C)n2)cc1	inconclusive: 79.4 µM [inhibitor, partial curve, poor fit]
Nc1nnnn1CC(=O)N1CC[C@@H]2[C@@H](CCC(=O)N2CCc2cnc[nH]2)C1	inconclusive: 14.1 µM [inhibitor, partial curve, poor fit]
COc1ccc(Cl)cc1NS(=O)(=O)c1cc(-c2n[nH]c(=O)c3c2CCCC3)ccc1C	inconclusive: 6.31 µM [inhibitor, full curve, poor fit]
O=C(NCc1ccco1)c1cccc(-c2nnc(-c3ccccc3)o2)c1	inconclusive: 79.4 µM [inhibitor, single point]

Quoted at random: 3 records from the list.
Compound	Potency
Cc1ccc(-n2c(C)c(C)c3c2ncn2nc(-c4ccncc4)nc32)cc1	inactive
Fc1ccc(CN2CCOC[C@H]2c2ncc(-c3ccc(Cl)s3)[nH]2)cc1	inconclusive: 44.7 µM [inhibitor, full curve]
Cc1nc2nc(-c3ccco3)[nH]n2c(=O)c1C	inconclusive: 39.8 µM [inhibitor, partial curve, poor fit]

— PubChem BioAssay AID1671190 (National Center for Advancing Translational Sciences (NCATS), 2021)
